Measured values taken from patent US20180334646A1.
No constants are given. Whether binding was seen depends on the method and setting. For some of these results: Binding seen in cells or lysates may run through a third protein. Some entries that bind do so weakly or less than the wild type.

Protein sequences, listed by entry. Tags and fused reporters are not part of them. Residues count along the entry.
UniProt O15105: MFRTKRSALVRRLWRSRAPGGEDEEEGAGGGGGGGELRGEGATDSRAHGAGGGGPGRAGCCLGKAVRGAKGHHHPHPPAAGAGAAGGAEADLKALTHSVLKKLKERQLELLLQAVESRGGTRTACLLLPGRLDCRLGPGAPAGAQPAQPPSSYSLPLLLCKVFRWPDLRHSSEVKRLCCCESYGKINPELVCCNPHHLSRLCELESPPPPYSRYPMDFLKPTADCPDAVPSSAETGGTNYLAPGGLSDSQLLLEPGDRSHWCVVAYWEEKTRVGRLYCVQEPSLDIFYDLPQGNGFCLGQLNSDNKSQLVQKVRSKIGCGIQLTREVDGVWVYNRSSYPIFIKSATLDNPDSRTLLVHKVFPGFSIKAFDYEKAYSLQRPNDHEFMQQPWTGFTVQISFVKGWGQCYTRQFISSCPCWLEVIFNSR
UniProt Q32ZE1, residues 1143-1368: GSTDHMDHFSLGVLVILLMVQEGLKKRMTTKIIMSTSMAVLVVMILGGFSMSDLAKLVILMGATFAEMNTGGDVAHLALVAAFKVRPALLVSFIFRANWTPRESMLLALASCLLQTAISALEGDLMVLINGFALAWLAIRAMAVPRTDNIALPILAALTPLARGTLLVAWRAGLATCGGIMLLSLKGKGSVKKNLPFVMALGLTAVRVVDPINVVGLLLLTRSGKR

Experiments:
NUMBL (human) [1] = target: T1, NUMBL (human) (UniProt Q9Y6R0); experiment: co-immunoprecipitation from HEK293 cells expressing ZIKV-NS2A-HA (anti-HA beads), Western blot
T1 sequence: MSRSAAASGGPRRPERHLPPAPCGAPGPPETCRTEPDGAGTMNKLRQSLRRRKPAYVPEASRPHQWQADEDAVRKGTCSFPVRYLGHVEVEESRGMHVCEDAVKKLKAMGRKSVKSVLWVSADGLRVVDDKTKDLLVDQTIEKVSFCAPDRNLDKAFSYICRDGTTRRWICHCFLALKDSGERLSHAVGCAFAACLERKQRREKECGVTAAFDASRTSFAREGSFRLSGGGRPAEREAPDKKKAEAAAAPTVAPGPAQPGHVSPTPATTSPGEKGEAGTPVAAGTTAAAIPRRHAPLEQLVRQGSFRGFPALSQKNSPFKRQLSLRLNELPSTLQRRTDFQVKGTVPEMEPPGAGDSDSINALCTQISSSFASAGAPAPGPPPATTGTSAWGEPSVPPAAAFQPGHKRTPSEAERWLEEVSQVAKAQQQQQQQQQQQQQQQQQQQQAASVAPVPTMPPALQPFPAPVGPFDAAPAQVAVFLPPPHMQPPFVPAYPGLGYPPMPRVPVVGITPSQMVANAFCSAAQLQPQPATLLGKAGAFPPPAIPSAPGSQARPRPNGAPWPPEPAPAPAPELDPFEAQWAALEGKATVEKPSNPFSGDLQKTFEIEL

SMAD7 (human) [2] = target: SMAD7 (human) (UniProt O15105); experiment: as above
NUMBL (human) [3] = target: T1, NUMBL (human); experiment: HuProt human protein microarray probed with Cy5-labelled GST-NS2A; hit cutoff Z>10
SMAD7 (human) [4] = target: SMAD7 (human) (UniProt O15105); experiment: as above

Which results are given for “HA-tagged ZIKV-NS2A (C-terminal HA), expressed in HEK293 cells (from UniProt Q32ZE1 1143-1368)”?
binding (NUMBL (human) [1]): binds; binding (SMAD7 (human) [2]): binds

What does the source list for “recombinant ZIKV-NS2A protein (N-terminal GST fusion, Cy5-labelled) (from UniProt Q32ZE1 1143-1368)”?
binding (NUMBL (human) [3]): binds; binding (SMAD7 (human) [4]): binds
